The list shows only some results of the screen, not a fair sample: it gathers tests that were run many times, whatever their T/C, doses with no T/C, and many T/C values between a quarter and a half above the control. Other doses and runs of a compound stand elsewhere. T/C: endpoint of the treated group in % of that of the vehicle group. Some doses have a count of surviving animals in place of a T/C: the source holds a T/C of zero for them, seemingly a mark for toxic or unscored doses. Some doses without a T/C left all or most animals alive at the check, yet need not have been tolerated: the source hardly ever lists a survival T/C far under the control, and the zero likely stands for such cases as well. Survivors were counted at the toxicity check, usually on the fifth day, unless a day is given; later deaths do not show. Schedules are NCI's codes, read here as Q, the interval in days (D) or hours (H), X, the number of doses. Some entries were tested several times; the values are given in rising order. For survival time, the PubChem record calls one and a half times the control and up active, and a quarter to a half above the control has no call in these data; cut-offs in other NCI protocols can differ. Some T/C values carry the count of animals alive at the toxicity check (mostly the fifth day); where none is given, no animal had died by that day.
Tested on: BDF1 mice, P388 leukemia ip, median survival T/C
Assay: NCI In Vivo Anticancer Drug Screen. Data for tumor model P388 Leukemia (intraperitoneal) in B6D2F1 (BDF1) mice
Conditions: T/C endpoint: median survival time, higher T/C = longer survival
Method in brief: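 Compound-treated tumour-bearing mice were compared with vehicle-treated controls. Survival was recorded, and the value is the treated-group measurement divided by the control-group measurement (T/C).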

[1] = dose: 400.0 mg/kg/injection, schedule: Q04DX003 (ip), vehicle: saline
[2] = dose: 50.0 mg/kg/injection, schedule: Q01DX009 (ip), vehicle: saline with Tween-80
[3] = dose: 200.0 mg/kg/injection, schedule: Q01DX009 (ip), vehicle: saline with Tween-80
[4] = dose: 6.6 mg/kg/injection, schedule: Q04DX003 (ip), vehicle: saline
[5] = dose: 100.0 mg/kg/injection, schedule: Q01DX009 (ip), vehicle: Klucel (hydroxypropylcellulose) (HPC)
[6] = dose: 200.0 mg/kg/injection, schedule: Q01DX009 (ip), vehicle: Klucel (hydroxypropylcellulose) (HPC)
[7] = dose: 100.0 mg/kg/injection, schedule: Q01DX009 (ip), vehicle: saline
[8] = dose: 200.0 mg/kg/injection, schedule: Q01DX009 (ip), vehicle: saline
[9] = dose: 400.0 mg/kg/injection, schedule: Q01DX009 (ip), vehicle: saline
[10] = dose: 200.0 mg/kg/injection, schedule: Q04DX003 (ip), vehicle: saline with Tween-80
[11] = dose: 6.25 mg/kg/injection, schedule: Q01DX009 (ip), vehicle: saline with Tween-80

In the case of `O=C1NC(C2CC3C=CC2C3)Nc2ccccc21` (stereo not drawn), the survivor count (dose: 50.0 mg/kg/injection, schedule: Q04DX003 (ip), vehicle: Klucel (hydroxypropylcellulose) (HPC)) is reported as 5 of 6.
With `O=c1[nH]c2nc(Cl)c(Cl)nc2[nH]1` the survivor count [1] was 3 of 6.
With `O=[N+]([O-])c1ccc(Oc2ccc(-c3ccccc3)cc2)c(Cl)c1` the survivor count (dose: 37.5 mg/kg/injection, schedule: Q01DX009 (ip), vehicle: saline with Tween-80) was 7 of 7.
For `COC(=O)c1cc(=O)nc(NN=C2CCCCC2)s1`, the survivor count (dose: 200.0 mg/kg/injection, schedule: Q01DX005 (ip), vehicle: saline with Tween-80) was 2 of 5.
In the case of `O=CNc1c(Cl)c(Cl)c2c(c1Cl)Cc1cc(Cl)ccc1-2`, the survivor count (dose: 1.5 mg/kg/injection, schedule: Q01DX009 (ip), vehicle: DMSO) is reported as 6 of 6, the survivor count (dose: 6.0 mg/kg/injection, schedule: Q01DX009 (ip), vehicle: DMSO) is reported as 6 of 6 and the survivor count (dose: 25.0 mg/kg/injection, schedule: Q01DX009 (ip), vehicle: DMSO) is reported as 5 of 6. For the same compound, the survivor count (dose: 50.0 mg/kg/injection, schedule: Q01DX009 (ip), vehicle: DMSO) was 5 of 6, the survivor count (dose: 100.0 mg/kg/injection, schedule: Q01DX009 (ip), vehicle: DMSO) was 1 of 6 and the survivor count (dose: 200.0 mg/kg/injection, schedule: Q01DX009 (ip), vehicle: DMSO) was 1 of 6. The survivor count (dose: 400.0 mg/kg/injection, schedule: Q01DX009 (ip), vehicle: DMSO) was 0 of 6.
In the case of `Nc1nc(-c2cccc3ccccc23)cc2ccccc12`, the T/C [2] is reported as 135 % of control and the T/C [3] is reported as 126 % of control.
`COc1cc2c3c4c1OCc1c5c(cc(c1-4)CC3[N+](C)(C)CC2)OCO5` (stereo not drawn) was tested, and the survivor count (dose: 25.0 mg/kg/injection, schedule: Q01DX001 (ip), vehicle: saline) was 0 of 6.
In the case of `COc1cc(Nc2c3ccccc3nc3ccccc23)cc(OC)c1OC`, the T/C [2] is reported as 130 % of control, the survivor count (dose: 100.0 mg/kg/injection, schedule: Q01DX009 (ip), vehicle: saline with Tween-80) is reported as 1 of 6 and 4 of 6 and the survivor count [3] is reported as 1 of 6.
With `NCCCCS(=O)(=O)Nc1ccc(Nc2c3ccccc3nc3cc([N+](=O)[O-])ccc23)cc1` the T/C (dose: 4.4 mg/kg/injection, schedule: Q04DX003 (ip), vehicle: saline) was 136 % of control, the T/C [4] was 136 % of control and the T/C (dose: 8.8 mg/kg/injection, schedule: Q04DX003 (ip), vehicle: saline) was 131 % of control. For the same compound, the T/C (dose: 10.0 mg/kg/injection, schedule: Q04DX003 (ip), vehicle: saline) was 145 % of control, the T/C (dose: 13.2 mg/kg/injection, schedule: Q04DX003 (ip), vehicle: saline) was 140 % of control and the T/C (dose: 20.0 mg/kg/injection, schedule: Q04DX003 (ip), vehicle: saline) was 140 % of control. For the same compound, the T/C (dose: 22.0 mg/kg/injection, schedule: Q04DX003 (ip), vehicle: saline) was 127 % of control, the T/C (dose: 30.0 mg/kg/injection, schedule: Q04DX003 (ip), vehicle: saline) was 136 % of control and the survivor count [1] was 6 of 6.
In the case of `COc1ccc(-c2csc(=[N+]3CCCCC3)s2)cc1`, the survivor count (dose: 100.0 mg/kg/injection, schedule: Q04DX003 (ip), vehicle: saline) is reported as 0 of 6.
`Cc1cc(N)c2cc(NC(=O)CCCCCCCCC(=O)Nc3ccc4nc(C)cc(N)c4c3)ccc2n1` was tested, and the T/C (dose: 12.5 mg/kg/injection, schedule: Q01DX009 (ip), vehicle: Klucel (hydroxypropylcellulose) (HPC)) was 140 % of control, the T/C (dose: 19.0 mg/kg/injection, schedule: Q04DX003 (ip), vehicle: Klucel (hydroxypropylcellulose) (HPC)) was 140 % of control and the T/C (dose: 25.0 mg/kg/injection, schedule: Q01DX009 (ip), vehicle: Klucel (hydroxypropylcellulose) (HPC)) was 145 % of control. For the same compound, the T/C (dose: 29.0 mg/kg/injection, schedule: Q04DX003 (ip), vehicle: Klucel (hydroxypropylcellulose) (HPC)) was 145 % of control [5 of 6 alive], the T/C (dose: 65.0 mg/kg/injection, schedule: Q04DX003 (ip), vehicle: Klucel (hydroxypropylcellulose) (HPC)) was 129 % of control and the T/C [5] was 140 % of control [5 of 6 alive]. For the same compound, the survivor count [5] was 4 of 6, the T/C (dose: 100.0 mg/kg/injection, schedule: Q04DX003 (ip), vehicle: Klucel (hydroxypropylcellulose) (HPC)) was 125 % of control and the T/C [6] was 145 % of control. For the same compound, the survivor count [6] was 0 of 6.
In the case of `O=C(c1ccccc1)c1cc[n+]([O-])cc1`, the survivor count (dose: 300.0 mg/kg/injection, schedule: Q01DX001 (ip), vehicle: saline sonified) is reported as 6 of 6.
For `Oc1cc(O)c(CN(CCCl)CCCl)cc1CN(CCCl)CCCl`, the T/C (dose: 2.3 mg/kg/injection, schedule: Q01DX009 (ip), vehicle: saline) was 129 % of control, the T/C [4] was 140 % of control and the T/C (dose: 12.5 mg/kg/injection, schedule: Q01DX009 (ip), vehicle: saline) was 140, 170, 190, 193, 233 % of control. For the same compound, the survivor count (dose: 50.0 mg/kg/injection, schedule: Q01DX009 (ip), vehicle: saline) was 3 of 3, the survivor count [7] was 3 of 3 and the survivor count [8] was 0 of 3. For the same compound, the survivor count [9] was 0 of 3 and 0 of 6.
With `CC12CCC3C(CCC4=CC(O)CCC43C=O)C1(O)CCC2c1ccc(=O)oc1` (stereo not drawn) the survivor count (dose: 3.0 mg/kg/injection, schedule: Q01DX009 (ip), vehicle: saline + alcohol) was 4 of 4, the survivor count (dose: 4.6 mg/kg/injection, schedule: Q01DX010 (ip), vehicle: carboxymethylcellulose (CMC)) was 6 of 6 and the survivor count (dose: 8.0 mg/kg/injection, schedule: Q01DX010 (ip), vehicle: carboxymethylcellulose (CMC)) was 6 of 6. The survivor count (dose: 12.0 mg/kg/injection, schedule: Q01DX010 (ip), vehicle: carboxymethylcellulose (CMC)) was 5 of 6, the survivor count (dose: 18.0 mg/kg/injection, schedule: Q01DX010 (ip), vehicle: carboxymethylcellulose (CMC)) was 0 of 6 and the survivor count (dose: 27.0 mg/kg/injection, schedule: Q01DX010 (ip), vehicle: carboxymethylcellulose (CMC)) was 0 of 6.
`CC(C)(C)NCC(CNC(C)(C)C)C(=O)c1ccccc1` was tested, and the survivor count (dose: 100.0 mg/kg/injection, schedule: Q04DX003 (ip), vehicle: saline with Tween-80) was 0 of 6, the survivor count [10] was 0 of 6 and the survivor count (dose: 400.0 mg/kg/injection, schedule: Q04DX003 (ip), vehicle: saline with Tween-80) was 0 of 6.
For `Cc1ccc(S(=O)(=O)N/N=C/C(O)CO)cc1` (stereo not drawn), the survivor count (dose: 25.0 mg/kg/injection, schedule: Q01DX009 (ip), vehicle: other) was 6 of 6.
In the case of `CCCCCC(C)(C)O`, the survivor count (dose: 50.0 mg/kg/injection, schedule: Q04DX003 (ip), vehicle: saline) is reported as 5 of 6.
With `O=[n+]1c2ccccc2n([O-])c2ccccc21.[Cl][Ni][Cl]` the T/C (dose: 25.0 mg/kg/injection, schedule: Q04DX003 (ip), vehicle: saline with Tween-80) was 138 % of control.
`CN(C)N=Nc1ccc(CCCC(=O)NN)cc1` was tested, and the T/C (dose: 3.0 mg/kg/injection, schedule: Q01DX009 (ip), vehicle: saline with Tween-80) was 125 % of control, the T/C (dose: 3.13 mg/kg/injection, schedule: Q01DX009 (ip), vehicle: saline with Tween-80) was 136 % of control and the T/C (dose: 4.5 mg/kg/injection, schedule: Q01DX009 (ip), vehicle: saline with Tween-80) was 140 % of control. The T/C [11] was 136 % of control, the survivor count [11] was 5 of 6 and the survivor count (dose: 12.5 mg/kg/injection, schedule: Q01DX009 (ip), vehicle: saline with Tween-80) was 6 of 6. The survivor count [2] was 5 of 6 and the survivor count [3] was 6 of 6.
With `NNC(=O)C1CC1` the survivor count (dose: 25.0 mg/kg/injection, schedule: Q01DX009 (ip), vehicle: saline) was 6 of 6 and the survivor count [7] was 5 of 6.
With `O=C1OC(O)C(Cl)=C1Cl` (stereo not drawn) the T/C (dose: 3.12 mg/kg/injection, schedule: Q01DX009 (ip), vehicle: saline with Tween-80) was 132 % of control.
For `O=C(CS)CS`, the survivor count (dose: 100.0 mg/kg/injection, schedule: Q01DX009 (ip), vehicle: water) was 0 of 6.
For `NN1CCCC1`, the survivor count [8] was 2 of 6, the survivor count [9] was 0 of 6 and the survivor count [1] was 3 of 6.
`COC(=O)c1ccccc1NC(=O)CCl` was tested, and the survivor count [10] was 6 of 6.

Reference: PubChem BioAssay AID328 (DTP/NCI, 2004)
